This note sets out measurements from patent publication US12636260B2, “Application of α-asarone in preparation of medicine for preventing or treating hemorrhagic stroke” (CHENGDU XINRUI TAIKANG TECHNOLOGY CO., LTD., priority 2021, dated 2026).

SMILES strings stand for the structures.

The subject of this data set is SAH rats. Kind of data set: Short-term neurological function of SAH rats (Garcia score, beam balance test, bleeding score). It counts as in vivo, rat. To be noted: SAH model, SAH severity after euthanasia. As to the method: Experimental grouping: At 2 h after endovascular perforation or collagenase VII injection, Zea Longa score was used to evaluate the neurological function of rats. Successful model rats were randomly divided into groups for administration.
All groups were administrated through the tail vein injection except for group N administrated intraperitoneally.
The rats were fasted for 12 hours before operation, and were anesthetized with 4% isoflurane, and kept anesthetized with 2% isoflurane. The animals were fixed in the supine position with the body temperature maintained at about 37° C. A traditional skin incision of the neck was performed along the midline. The muscle and fascia were separated along the medial margin of the sternocleidomastoid muscle to expose the right side, then the common carotid artery (CCA), external carotid artery (ECA) and internal carotid artery (ICA) were bluntly separated with disposal lines placed at CCA proximal end, ICA and ECA for use. The CCA proximal end and the ECA were ligated, and the ICA was temporarily clamped with an arterial clip, and then a small hole was poked with a needle at about 4 mm from the bifurcation at the CCA. A nylon suture was introduced into the CCA from the hole and advanced through the ICA after releasing the arterial clip, and the suture was inserted intracranially. […] The suture moved forward for roughly 2 mm to perforate the artery followed by instant withdraw, and then the suture was completely removed and the ICA was ligated. Finally, the incision was cleaned with normal saline and sutured. The sham group conducted the same procedure as the model group except for the perforation. After awakening from anesthesia, the animals were raised normally.
The SAH severity was grading after rat's euthanasia, i.e., completing the evaluation of short-term neurological function. The score was determined by the amount of subarachnoid hemorrhage on the surface of basal cistern and brain tissue which was divided into six parts by the Willis ring composed of basilar artery, anterior cerebral artery, internal carotid artery, posterior cerebral artery and posterior communicating artery. Each part was graded from 0 to 3 points according to the amount of subarachnoid blood clots, i.e., 0 points: no subarachnoid blood; 1 point: a small amount of subarachnoid blood; 2 points: moderate amount of blood clots with recognizable arteries; 3 points: blood clots cover all arteries in the area. All 6 part scores were added up for a total of 18 points. According to the final score, SAH hemorrhage severity could be divided into mild subarachnoid hemorrhage (0 to 7 points), moderate subarachnoid hemorrhage (8 to 12 points), and severe subarachnoid hemorrhage (13 to 18 points). The moderate to severe SAH models were selected for statistical analysis (score≥8 points).
According to Zea Longa's neurological function score, the rats were scored 2 hours after the operation when they were awake from anesthesia. Successful model rats with a score of 1 to 3 points were enrolled in the group: • 0 points: no neurological deficits with normal activity; • 1 point: inability to fully extend the contralateral forepaw; • 2 points: the animal appears to turn in circles when crawling; • 3 points: the animal tends to lean to the hemiplegic side; • 4 points: the animal cannot walk spontaneously or loses consciousness. 1.4 Assessment of Short-Term Neurological Function
The neurological function of rats was comprehensively evaluated with Garcia score and beam balance test 24 hours after modeling. The criteria of Garcia score are shown in Table 1, which evaluates the movement, sensation, climbing and limb symmetry of the rats with the score range of 3 to 18 points. The lower the score, the more severe the neurological injury. The criteria of the beam balance test are shown in Table 2, which evaluated the proprioception and body coordination of rats with the score range of 0 to 6 points. […]

In the case of `CCOC(=O)C1=C[C@]2(CC)CCCN3CCc4c(n1c1ccccc41)[C@@H]32` [vinpocetine, reference compound], the Bleeding score (group V, vinpocetine injection 2 mg/kg tail vein) came out at 11.40.

Take `C/C=C/c1cc(OC)c(OC)cc1OC` [α-asarone, trans-2,4,5-trimethoxy-1-propenylbenzene]: the Bleeding score by setting is: (group H, α-asarone emulsion injection 30 mg/kg tail vein) 11.75; (group L, α-asarone emulsion injection 7.5 mg/kg tail vein) 10.94; (group M, α-asarone emulsion injection 15 mg/kg tail vein) 10.64; (group O, α-asarone emulsion oral administration 40 mg/kg) 10.39.

Where the note is “group B, β-asarone emulsion injection 20 mg/kg tail vein”, `C/C=C\c1cc(OC)c(OC)cc1OC` [β-asarone, reference compound] came in with a Bleeding score of 11.20.
